For two molecules, binding results are on record in PMC10642969.

No constants are given. Whether binding was seen depends on the method and setting. Binding seen in cells or lysates may run through a third protein. Some results given as binding are weak or reduced against the parent protein; the word gives no strength.

The target of experiment [1] is SCARECROW-LIKE23 (SCL23), SCL23-mVenus (Arabidopsis thaliana) (UniProt Q9FHZ1). Description: FRET or BRET; FRET acceptor photobleaching in nuclei of N. benthamiana leaf epidermal cells after inducible transient expression; mVenus donor, mCherry acceptor.
Experiment [2] addresses T1, SCARECROW (SCR), SCR-RFP (Arabidopsis thaliana), Q9M384.
T1 chain: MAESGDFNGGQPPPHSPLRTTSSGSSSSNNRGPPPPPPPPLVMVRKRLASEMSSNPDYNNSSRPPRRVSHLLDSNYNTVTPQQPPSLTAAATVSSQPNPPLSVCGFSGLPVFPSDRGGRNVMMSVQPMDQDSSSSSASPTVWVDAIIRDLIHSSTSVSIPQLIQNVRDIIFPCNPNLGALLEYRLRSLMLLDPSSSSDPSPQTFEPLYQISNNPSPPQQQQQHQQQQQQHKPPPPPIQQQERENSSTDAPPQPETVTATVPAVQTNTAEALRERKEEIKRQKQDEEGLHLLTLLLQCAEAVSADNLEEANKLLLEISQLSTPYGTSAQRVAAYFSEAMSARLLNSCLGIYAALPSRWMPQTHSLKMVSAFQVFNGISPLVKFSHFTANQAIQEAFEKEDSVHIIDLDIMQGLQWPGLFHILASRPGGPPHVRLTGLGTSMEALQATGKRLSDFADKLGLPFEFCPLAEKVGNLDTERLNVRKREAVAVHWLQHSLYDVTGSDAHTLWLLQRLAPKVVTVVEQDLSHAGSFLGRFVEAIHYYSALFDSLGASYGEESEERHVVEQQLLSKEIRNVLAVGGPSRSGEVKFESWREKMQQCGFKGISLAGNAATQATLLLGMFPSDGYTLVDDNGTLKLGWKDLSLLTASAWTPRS
Description: FRET or BRET; FRET-FLIM in vivo in Arabidopsis shoot meristems (lateral organ, sepal and petal primordia); YFP fusion as donor, RFP fusion as acceptor; intensity-weighted mean donor lifetime, bi-exponential fit. The following applies: remark: other sources report otherwise. A general note: BRET reads energy transfer from a luciferase to a nearby fluorophore.

B1: SCARECROW-LIKE23 (SCL23), SCL23-mVenus (protein, UniProt Q9FHZ1 1-405)
chain: MTTKRIDRDLPSSDDPSSAKRRIEFPEETLENDGAAAIKLLSLLLQCAEYVATDHLREASTLLSEISEICSPFGSSPERVVAYFAQALQTRVISSYLSGACSPLSEKPLTVVQSQKIFSALQTYNSVSPLIKFSHFTANQAIFQALDGEDSVHIIDLDVMQGLQWPALFHILASRPRKLRSIRITGFGSSSDLLASTGRRLADFASSLNLPFEFHPIEGIIGNLIDPSQLATRQGEAVVVHWMQHRLYDVTGNNLETLEILRRLKPNLITVVEQELSYDDGGSFLGRFVEALHYYSALFDALGDGLGEESGERFTVEQIVLGTEIRNIVAHGGGRRKRMKWKEELSRVGFRPVSLRGNPATQAGLLLGMLPWNGYTLVEENGTLRLGWKDLSLLTASAWKSQPFD
In the case of B1, the binding entry in experiment [1] is on record as “binds weakly”.

B2: SCARECROW (SCR), SCR-RFP, Q9M384 1-653 (protein)
chain: T1 chain
Consider B2, for which, in experiment [2], the binding entry is reported as “no binding”.
